Results taken from patent US6454951B1, “Photosensitive composition” (priority 1996, dated 2002).

Test system: spheroplasts or protoplasts
Experiment: Distribution of porphyrin between spheroplasts or protoplasts and outer cell wall
Format: cell-based
Conditions: in words

**Q.** With “Meso-di(N-methyl-4-pyridyl)diphenylporphine [Di(4-N-MPy)Ph2P]” as the substance, how does the “Effect of washing operations on porphyrin at endocellular / binding sites” value read?
**A.** not noticeably decreased by washing operations
